Consider two molecules from PMC7997893.

Amino acid sequences for entries named in this document (tags omitted).
UniProt Q96EB6: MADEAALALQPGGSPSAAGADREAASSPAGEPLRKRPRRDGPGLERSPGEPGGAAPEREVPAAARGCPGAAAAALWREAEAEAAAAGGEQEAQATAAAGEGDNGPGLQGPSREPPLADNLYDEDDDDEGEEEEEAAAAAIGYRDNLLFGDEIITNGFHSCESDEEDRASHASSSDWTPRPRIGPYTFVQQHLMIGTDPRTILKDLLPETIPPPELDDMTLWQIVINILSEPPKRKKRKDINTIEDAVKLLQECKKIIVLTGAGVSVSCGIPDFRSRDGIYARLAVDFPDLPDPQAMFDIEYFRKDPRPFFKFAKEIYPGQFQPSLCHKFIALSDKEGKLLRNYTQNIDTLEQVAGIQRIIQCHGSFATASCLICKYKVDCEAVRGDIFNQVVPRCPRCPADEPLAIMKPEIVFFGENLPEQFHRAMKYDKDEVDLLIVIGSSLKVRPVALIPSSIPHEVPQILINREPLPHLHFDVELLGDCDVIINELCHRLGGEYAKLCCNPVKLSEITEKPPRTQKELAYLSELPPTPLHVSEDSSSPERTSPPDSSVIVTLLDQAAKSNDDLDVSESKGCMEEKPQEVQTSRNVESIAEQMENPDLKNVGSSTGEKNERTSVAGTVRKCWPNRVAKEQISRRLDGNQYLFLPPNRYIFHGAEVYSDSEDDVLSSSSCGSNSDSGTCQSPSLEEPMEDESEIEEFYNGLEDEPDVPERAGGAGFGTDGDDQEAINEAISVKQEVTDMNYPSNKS

The target of assay [1] is T1, Sirtuin 1 (Sirt1), endogenous in AML12 cells (mouse (endogenous in AML12)) (UniProt Q923E4).
T1 sequence: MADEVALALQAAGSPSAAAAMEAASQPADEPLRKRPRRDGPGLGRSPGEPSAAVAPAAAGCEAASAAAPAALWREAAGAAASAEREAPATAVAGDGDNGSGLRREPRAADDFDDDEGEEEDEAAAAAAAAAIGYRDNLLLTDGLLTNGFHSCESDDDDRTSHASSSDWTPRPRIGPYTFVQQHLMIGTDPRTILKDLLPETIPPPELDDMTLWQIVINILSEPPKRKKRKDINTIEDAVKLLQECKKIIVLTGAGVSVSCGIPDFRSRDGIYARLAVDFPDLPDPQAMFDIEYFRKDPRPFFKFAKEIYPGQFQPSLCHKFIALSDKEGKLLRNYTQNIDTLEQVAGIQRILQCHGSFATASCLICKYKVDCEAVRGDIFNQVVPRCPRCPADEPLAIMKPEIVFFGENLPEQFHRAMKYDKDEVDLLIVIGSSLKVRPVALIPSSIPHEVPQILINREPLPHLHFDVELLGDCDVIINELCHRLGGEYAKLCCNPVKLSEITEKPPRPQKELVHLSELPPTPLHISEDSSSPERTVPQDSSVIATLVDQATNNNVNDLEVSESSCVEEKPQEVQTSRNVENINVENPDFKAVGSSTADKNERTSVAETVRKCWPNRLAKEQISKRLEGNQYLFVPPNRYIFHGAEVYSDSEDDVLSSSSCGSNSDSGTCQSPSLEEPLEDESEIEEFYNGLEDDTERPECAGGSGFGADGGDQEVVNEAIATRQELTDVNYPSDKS
The experiment in a line: co-IP; endogenous proteins in extracts of HepG2 or AML12 cells (lysis buffer 50 mM Tris pH 8.0, 5 mM NaCl, 0.5% NP-40); immunoprecipitated overnight at 4 °C with polyclonal anti-Grail or anti-Sirt1 (rabbit IgG as control), Dynabeads Protein G, washed with SNNTE buffer (0.5 M NaCl, 1% NP-40); immunoblot with anti-Grail and anti-Sirt1. Background: Immunoblotting shows a protein as a band on a membrane.

The target in assay [2] is Sirtuin 1 (Sirt1), endogenous in HepG2 cells (human (endogenous in HepG2)) (UniProt Q96EB6). Described as above.

Results are given in words; binding and its absence hold for the method and conditions named. Binding seen in cells or lysates may run through a third protein. Some entries that bind do so weakly or less than the wild type.

B1: Gene related to anergy in lymphocytes (Grail), endogenous in AML12 cells (enzyme, UniProt Q9D304 39-428)
chain: AEAVWTAYLNVSWRVPHTGVNRTVWELSEEGVYGQDSPLEPVSGVLVPPDGPGALNACNPHTNFTVPTVWGSTVQVSWLALIQRGGGCTFADKIHLASERGASGAVIFNFPGTRNEVIPMSHPGAGDIVAIMIGNLKGTKILQSIQRGIQVTMVIEVGKKHGPWVNHYSIFFVSVSFFIITAATVGYFIFYSARRLRNARAQSRKQRQLKADAKKAIGKLQLRTLKQGDKEIGPDGDSCAVCIELYKPNDLVRILTCNHIFHKTCVDPWLLEHRTCPMCKCDILKALGIEVDVEDGSVSLQVPVSNEASNTASPHEEDSRSETASSGYASVQGADEPPLEEHAQSANENLQLVNHEANSVAVDVVPHVDNPTFEEDETPDQEAAVREIKS
For the molecule B1, the binding result in assay [1] is recorded as “binds”.

B2: Gene related to anergy in lymphocytes (Grail), endogenous in HepG2 cells (enzyme, UniProt Q8TEB7 39-428)
chain: AEAVWTAYLNVSWRVPHTGVNRTVWELSEEGVYGQDSPLEPVAGVLVPPDGPGALNACNPHTNFTVPTVWGSTVQVSWLALIQRGGGCTFADKIHLAYERGASGAVIFNFPGTRNEVIPMSHPGAVDIVAIMIGNLKGTKILQSIQRGIQVTMVIEVGKKHGPWVNHYSIFFVSVSFFIITAATVGYFIFYSARRLRNARAQSRKQRQLKADAKKAIGRLQLRTLKQGDKEIGPDGDSCAVCIELYKPNDLVRILTCNHIFHKTCVDPWLLEHRTCPMCKCDILKALGIEVDVEDGSVSLQVPVSNEISNSASSHEEDNRSETASSGYASVQGTDEPPLEEHVQSTNESLQLVNHEANSVAVDVIPHVDNPTFEEDETPNQETAVREIKS
On to B2, for which the binding entry in assay [2] is “binds”.
